Data: article PMC10981825
These are yes or no findings as the source states them, for the method shown. Binding seen in cells or lysates may run through a third protein. Some results given as binding are weak or reduced against the parent protein; the word gives no strength.

By UniProt entry, the sequences of proteins in these tests, tags left out. Residues count along the entry.
UniProt P46531, residues 19-2555: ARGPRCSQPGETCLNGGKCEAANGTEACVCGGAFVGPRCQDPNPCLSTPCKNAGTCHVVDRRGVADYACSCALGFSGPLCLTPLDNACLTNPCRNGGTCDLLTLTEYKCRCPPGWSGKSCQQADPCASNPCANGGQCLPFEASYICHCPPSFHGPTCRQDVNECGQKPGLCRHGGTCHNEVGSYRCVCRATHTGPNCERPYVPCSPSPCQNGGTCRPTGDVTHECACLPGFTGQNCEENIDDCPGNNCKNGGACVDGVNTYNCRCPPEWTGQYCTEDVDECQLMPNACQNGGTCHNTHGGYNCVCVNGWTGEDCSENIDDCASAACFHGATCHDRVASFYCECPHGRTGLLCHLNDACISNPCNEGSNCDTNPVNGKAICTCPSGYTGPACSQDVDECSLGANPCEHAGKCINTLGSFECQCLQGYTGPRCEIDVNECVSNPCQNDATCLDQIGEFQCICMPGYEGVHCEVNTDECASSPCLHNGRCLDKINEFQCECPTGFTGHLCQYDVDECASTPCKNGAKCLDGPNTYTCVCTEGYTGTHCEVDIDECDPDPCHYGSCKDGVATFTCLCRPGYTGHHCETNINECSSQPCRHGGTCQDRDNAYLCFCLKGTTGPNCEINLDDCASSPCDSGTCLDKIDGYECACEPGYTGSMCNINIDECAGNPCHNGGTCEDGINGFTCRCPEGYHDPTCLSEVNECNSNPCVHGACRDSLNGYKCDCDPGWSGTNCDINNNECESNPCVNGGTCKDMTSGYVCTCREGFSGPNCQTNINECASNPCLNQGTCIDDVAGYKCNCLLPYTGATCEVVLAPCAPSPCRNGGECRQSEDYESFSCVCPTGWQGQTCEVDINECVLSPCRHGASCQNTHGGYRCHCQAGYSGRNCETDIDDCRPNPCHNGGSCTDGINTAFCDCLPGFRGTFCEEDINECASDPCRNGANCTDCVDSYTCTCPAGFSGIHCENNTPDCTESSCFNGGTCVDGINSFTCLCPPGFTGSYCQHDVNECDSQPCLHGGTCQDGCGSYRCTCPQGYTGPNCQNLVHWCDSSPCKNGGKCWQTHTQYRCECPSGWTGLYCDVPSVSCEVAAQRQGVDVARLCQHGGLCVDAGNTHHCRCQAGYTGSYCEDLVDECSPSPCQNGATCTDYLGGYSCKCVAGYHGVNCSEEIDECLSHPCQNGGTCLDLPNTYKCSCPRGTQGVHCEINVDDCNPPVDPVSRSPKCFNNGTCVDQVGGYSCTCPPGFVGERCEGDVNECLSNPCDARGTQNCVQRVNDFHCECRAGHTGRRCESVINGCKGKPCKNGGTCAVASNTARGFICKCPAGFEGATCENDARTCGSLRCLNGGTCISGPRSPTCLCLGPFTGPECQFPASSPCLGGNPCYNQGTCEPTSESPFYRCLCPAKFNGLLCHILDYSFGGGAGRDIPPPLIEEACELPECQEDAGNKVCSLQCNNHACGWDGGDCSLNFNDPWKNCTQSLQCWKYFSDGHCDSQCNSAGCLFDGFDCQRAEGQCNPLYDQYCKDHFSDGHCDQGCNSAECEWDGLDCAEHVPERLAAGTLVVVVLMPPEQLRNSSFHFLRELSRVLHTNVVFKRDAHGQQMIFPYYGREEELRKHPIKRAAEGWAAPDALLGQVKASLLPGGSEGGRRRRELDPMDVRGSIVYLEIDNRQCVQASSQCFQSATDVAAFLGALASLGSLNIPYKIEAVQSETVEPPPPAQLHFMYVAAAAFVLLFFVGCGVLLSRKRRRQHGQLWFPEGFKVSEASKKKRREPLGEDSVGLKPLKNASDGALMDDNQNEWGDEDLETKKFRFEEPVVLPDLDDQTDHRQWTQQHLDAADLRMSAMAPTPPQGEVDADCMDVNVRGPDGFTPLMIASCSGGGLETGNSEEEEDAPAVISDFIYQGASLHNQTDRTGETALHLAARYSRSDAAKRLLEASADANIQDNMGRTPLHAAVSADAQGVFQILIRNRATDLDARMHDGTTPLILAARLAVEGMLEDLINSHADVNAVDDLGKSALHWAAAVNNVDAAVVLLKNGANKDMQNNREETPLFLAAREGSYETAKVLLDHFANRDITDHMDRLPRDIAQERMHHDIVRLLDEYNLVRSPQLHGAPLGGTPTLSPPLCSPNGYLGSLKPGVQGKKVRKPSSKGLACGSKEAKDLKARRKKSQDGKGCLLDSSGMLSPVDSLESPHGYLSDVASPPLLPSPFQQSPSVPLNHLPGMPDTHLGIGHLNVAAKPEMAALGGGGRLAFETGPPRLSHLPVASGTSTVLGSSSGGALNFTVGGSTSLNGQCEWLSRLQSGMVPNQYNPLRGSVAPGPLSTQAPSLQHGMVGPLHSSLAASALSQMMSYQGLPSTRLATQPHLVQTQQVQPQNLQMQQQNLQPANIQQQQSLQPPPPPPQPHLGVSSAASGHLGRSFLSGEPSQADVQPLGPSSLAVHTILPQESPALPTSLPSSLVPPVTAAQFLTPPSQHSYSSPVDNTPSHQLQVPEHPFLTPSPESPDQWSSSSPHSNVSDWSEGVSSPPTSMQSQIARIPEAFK
UniProt Q92830: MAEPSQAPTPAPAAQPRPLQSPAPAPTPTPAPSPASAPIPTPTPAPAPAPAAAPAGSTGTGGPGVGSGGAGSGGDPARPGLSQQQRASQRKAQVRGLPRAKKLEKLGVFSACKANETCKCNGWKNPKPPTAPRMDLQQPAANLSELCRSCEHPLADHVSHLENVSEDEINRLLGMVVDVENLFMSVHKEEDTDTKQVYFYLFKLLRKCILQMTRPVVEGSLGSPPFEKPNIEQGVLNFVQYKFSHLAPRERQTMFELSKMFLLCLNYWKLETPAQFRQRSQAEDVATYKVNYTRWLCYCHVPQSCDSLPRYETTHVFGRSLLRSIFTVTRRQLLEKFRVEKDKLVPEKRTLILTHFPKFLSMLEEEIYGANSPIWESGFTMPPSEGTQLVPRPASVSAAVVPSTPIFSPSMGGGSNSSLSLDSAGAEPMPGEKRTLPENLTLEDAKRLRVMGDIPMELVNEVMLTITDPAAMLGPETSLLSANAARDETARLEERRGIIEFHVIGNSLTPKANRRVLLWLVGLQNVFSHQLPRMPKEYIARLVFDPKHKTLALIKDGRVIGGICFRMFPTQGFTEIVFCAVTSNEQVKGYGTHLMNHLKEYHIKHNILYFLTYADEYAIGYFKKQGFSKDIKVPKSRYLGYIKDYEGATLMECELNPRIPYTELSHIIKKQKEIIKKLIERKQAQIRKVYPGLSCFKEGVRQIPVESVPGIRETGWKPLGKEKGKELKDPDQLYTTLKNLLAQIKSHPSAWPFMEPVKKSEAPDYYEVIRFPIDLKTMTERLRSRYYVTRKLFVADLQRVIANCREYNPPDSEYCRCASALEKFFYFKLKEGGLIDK

Target: Notch1 (human (endogenous in DPSCs)) (UniProt P46531)
Test: co-IP; anti-KAT2A, anti-Notch1 or normal IgG added to 1 mg DPSC lysate precleared with Protein G Agarose beads, 4 °C overnight; complexes analysed by western blot; endogenous proteins

KAT2A (from UniProt Q92830 1-837) (enzyme)
binding: binds
